Test results published in patent US20090142377A1.
No constants are given. Whether binding was seen depends on the method and setting. Some entries that bind do so weakly or less than the wild type.

Chains of the proteins cited; added tags and fusions are not shown. Residues count along the entry.
UniProt P21530, residues 690-1030: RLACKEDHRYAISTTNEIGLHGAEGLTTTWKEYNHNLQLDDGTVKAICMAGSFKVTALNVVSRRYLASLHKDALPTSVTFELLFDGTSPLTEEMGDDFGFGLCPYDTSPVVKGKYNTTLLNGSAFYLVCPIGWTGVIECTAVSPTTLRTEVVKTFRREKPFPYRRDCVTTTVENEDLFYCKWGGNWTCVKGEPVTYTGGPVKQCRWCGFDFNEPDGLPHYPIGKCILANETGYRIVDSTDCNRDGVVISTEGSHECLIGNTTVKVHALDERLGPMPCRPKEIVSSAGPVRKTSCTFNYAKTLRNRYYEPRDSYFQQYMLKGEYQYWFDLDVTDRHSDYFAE
UniProt P00750, residues 36-562: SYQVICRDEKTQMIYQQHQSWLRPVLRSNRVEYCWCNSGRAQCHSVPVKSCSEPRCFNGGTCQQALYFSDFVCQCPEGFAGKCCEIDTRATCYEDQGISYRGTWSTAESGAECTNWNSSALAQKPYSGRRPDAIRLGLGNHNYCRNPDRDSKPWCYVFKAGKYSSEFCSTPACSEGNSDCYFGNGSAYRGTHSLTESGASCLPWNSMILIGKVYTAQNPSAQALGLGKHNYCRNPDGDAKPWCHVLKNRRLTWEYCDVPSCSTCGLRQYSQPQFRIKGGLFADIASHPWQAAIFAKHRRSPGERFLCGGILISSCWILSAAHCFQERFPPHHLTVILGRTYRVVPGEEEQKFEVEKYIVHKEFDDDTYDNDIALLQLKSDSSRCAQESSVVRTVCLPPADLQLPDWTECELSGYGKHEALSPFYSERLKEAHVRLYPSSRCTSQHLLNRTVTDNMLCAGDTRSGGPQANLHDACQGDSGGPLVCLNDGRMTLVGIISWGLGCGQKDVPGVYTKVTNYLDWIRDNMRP
UniProt P02751, residues 183-275: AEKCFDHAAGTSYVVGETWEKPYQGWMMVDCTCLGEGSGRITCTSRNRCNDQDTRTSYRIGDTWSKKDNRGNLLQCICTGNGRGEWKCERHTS

Tests used:
[1] = biological target: cE2-B (SEC-E2 heated for 1 h at 95 C) (Classical Swine Fever Virus) (UniProt P21530); experiment: ELISA, coated E2 form, tPA series with eACA
[2] = biological target: cE2-A (SEC-E2 heat-cycled three times 25 to 85 C) (Classical Swine Fever Virus) (UniProt P21530); experiment: ELISA, coated E2 form, tPA series with eACA
[3] = biological target: cE2-B (SEC-E2 heated for 1 h at 95 C) (Classical Swine Fever Virus) (UniProt P21530); experiment: ELISA, coated E2 form, Fn F4-5 series, anti-FLAG-HRP detection
[4] = biological target: cE2-A (SEC-E2 heat-cycled three times 25 to 85 C) (Classical Swine Fever Virus) (UniProt P21530); experiment: as above

## tissue type plasminogen activator (tPA; Actilyse, Boehringer-Ingelheim) (from UniProt P00750 36-562) (enzyme)
[1]
  binding: binds
[2]
  binding: binds

## fourth and fifth finger domain of fibronectin (Fn F4-5), with C-terminal FLAG-tag (from UniProt P02751 183-275)
[3]
  binding: binds
[4]
  binding: binds
